From the supplement of paper PMC12819154, “High-throughput peptide-centric local stability assay extends protein–ligand identification to membrane proteins, tissues and bacteria” (Nature Structural & Molecular Biology, 2025)
The other results are listed elsewhere or left out. Most entries show no effect beyond the scatter of the controls.

By UniProt entry, the sequences of proteins in these tests, tags left out. Where a name states a change or a piece, a line headed by the entry shows the natural chain unless it says otherwise.
UniProt P23475: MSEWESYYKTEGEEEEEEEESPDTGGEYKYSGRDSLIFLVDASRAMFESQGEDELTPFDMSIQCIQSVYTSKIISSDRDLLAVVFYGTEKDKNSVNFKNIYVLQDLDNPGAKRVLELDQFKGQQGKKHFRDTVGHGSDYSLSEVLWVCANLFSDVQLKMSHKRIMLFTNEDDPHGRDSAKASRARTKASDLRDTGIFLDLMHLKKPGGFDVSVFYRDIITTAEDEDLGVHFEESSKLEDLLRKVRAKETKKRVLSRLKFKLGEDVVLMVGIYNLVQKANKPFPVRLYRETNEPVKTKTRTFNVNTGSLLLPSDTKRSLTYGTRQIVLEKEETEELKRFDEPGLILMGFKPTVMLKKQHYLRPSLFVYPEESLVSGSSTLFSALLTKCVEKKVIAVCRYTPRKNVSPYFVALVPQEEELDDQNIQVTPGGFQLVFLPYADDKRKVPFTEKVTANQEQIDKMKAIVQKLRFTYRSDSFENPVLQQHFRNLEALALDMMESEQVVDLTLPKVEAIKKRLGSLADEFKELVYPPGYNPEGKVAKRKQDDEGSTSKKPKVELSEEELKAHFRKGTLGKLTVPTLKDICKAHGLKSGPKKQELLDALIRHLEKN
UniProt P26618: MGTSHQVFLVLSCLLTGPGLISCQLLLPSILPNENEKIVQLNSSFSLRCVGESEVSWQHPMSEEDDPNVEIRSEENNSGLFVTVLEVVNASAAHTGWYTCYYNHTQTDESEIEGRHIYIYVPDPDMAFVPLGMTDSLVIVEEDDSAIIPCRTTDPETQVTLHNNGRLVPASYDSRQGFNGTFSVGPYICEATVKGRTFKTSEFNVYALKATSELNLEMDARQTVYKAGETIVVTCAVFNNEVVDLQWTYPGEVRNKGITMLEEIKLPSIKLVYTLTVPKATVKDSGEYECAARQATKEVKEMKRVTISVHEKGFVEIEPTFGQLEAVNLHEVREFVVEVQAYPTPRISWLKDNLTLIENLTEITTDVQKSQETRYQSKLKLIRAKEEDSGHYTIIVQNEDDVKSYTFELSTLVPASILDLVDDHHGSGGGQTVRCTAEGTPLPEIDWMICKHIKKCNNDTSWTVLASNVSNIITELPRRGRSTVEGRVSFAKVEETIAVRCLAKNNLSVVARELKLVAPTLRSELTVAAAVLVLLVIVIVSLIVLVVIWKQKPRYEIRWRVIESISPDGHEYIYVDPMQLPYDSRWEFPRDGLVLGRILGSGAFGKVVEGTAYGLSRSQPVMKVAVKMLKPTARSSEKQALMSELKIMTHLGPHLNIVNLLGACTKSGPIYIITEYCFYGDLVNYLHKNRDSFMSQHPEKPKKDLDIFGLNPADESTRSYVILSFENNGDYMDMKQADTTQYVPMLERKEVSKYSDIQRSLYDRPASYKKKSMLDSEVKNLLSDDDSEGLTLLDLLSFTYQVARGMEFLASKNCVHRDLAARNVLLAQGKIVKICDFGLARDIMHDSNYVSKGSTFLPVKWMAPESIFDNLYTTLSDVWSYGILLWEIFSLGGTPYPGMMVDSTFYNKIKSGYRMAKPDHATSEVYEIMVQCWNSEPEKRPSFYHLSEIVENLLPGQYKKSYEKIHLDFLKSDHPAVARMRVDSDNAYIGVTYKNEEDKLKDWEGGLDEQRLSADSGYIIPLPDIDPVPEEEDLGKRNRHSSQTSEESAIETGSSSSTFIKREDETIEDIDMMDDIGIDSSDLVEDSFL
UniProt P23927: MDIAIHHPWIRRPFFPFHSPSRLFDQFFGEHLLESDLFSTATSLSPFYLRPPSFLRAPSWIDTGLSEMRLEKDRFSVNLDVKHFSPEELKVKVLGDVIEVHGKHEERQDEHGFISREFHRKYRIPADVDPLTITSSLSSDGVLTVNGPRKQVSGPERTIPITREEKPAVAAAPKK
UniProt P20491: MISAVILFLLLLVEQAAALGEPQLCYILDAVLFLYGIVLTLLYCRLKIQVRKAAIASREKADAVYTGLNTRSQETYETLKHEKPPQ
UniProt P27601: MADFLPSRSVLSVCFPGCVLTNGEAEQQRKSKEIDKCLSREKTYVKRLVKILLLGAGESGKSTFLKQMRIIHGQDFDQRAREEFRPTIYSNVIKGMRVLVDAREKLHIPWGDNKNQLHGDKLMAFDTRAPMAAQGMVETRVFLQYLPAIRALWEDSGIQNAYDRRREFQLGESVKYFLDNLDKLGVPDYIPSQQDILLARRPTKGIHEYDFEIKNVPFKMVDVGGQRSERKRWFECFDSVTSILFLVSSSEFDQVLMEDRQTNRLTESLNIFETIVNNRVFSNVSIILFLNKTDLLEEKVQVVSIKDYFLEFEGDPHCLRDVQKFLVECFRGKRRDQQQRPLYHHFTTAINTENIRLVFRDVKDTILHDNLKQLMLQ
UniProt P27612: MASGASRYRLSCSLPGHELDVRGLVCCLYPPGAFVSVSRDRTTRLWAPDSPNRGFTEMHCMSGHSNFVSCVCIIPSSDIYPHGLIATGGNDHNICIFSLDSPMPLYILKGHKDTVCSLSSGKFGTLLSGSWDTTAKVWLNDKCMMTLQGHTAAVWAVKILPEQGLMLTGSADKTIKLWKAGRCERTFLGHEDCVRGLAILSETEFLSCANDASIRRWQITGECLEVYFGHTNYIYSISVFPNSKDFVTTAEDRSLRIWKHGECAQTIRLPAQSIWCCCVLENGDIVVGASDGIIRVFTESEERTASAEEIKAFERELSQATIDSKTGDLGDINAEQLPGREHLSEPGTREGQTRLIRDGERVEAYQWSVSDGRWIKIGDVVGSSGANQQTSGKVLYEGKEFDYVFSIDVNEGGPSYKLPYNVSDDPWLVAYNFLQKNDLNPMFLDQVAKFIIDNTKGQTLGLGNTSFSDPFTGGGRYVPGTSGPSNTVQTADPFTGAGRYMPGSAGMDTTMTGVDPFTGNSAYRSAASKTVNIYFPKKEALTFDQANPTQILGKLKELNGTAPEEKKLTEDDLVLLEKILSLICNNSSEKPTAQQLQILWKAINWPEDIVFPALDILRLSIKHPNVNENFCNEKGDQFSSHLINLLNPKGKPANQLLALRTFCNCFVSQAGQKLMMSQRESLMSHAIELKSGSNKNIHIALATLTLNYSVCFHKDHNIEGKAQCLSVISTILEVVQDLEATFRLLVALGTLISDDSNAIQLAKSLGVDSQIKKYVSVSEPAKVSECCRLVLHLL
UniProt P17156, whole entry: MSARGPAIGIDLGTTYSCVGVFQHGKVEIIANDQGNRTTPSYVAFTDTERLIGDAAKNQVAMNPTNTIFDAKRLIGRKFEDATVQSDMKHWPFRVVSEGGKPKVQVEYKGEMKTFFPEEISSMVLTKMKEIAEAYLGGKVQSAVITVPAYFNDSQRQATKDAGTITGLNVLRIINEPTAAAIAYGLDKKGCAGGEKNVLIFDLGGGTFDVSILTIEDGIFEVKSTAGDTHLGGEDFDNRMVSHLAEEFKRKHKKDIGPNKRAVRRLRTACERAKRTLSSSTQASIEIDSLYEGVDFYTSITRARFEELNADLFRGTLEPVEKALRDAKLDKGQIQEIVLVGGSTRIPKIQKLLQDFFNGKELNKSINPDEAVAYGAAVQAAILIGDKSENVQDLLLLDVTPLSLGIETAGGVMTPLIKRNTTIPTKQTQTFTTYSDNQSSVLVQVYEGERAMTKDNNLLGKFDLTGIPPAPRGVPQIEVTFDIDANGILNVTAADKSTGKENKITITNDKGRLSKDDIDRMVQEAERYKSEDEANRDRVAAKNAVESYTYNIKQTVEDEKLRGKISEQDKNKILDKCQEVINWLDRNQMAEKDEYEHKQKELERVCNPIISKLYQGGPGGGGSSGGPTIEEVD
UniProt P21271, whole entry: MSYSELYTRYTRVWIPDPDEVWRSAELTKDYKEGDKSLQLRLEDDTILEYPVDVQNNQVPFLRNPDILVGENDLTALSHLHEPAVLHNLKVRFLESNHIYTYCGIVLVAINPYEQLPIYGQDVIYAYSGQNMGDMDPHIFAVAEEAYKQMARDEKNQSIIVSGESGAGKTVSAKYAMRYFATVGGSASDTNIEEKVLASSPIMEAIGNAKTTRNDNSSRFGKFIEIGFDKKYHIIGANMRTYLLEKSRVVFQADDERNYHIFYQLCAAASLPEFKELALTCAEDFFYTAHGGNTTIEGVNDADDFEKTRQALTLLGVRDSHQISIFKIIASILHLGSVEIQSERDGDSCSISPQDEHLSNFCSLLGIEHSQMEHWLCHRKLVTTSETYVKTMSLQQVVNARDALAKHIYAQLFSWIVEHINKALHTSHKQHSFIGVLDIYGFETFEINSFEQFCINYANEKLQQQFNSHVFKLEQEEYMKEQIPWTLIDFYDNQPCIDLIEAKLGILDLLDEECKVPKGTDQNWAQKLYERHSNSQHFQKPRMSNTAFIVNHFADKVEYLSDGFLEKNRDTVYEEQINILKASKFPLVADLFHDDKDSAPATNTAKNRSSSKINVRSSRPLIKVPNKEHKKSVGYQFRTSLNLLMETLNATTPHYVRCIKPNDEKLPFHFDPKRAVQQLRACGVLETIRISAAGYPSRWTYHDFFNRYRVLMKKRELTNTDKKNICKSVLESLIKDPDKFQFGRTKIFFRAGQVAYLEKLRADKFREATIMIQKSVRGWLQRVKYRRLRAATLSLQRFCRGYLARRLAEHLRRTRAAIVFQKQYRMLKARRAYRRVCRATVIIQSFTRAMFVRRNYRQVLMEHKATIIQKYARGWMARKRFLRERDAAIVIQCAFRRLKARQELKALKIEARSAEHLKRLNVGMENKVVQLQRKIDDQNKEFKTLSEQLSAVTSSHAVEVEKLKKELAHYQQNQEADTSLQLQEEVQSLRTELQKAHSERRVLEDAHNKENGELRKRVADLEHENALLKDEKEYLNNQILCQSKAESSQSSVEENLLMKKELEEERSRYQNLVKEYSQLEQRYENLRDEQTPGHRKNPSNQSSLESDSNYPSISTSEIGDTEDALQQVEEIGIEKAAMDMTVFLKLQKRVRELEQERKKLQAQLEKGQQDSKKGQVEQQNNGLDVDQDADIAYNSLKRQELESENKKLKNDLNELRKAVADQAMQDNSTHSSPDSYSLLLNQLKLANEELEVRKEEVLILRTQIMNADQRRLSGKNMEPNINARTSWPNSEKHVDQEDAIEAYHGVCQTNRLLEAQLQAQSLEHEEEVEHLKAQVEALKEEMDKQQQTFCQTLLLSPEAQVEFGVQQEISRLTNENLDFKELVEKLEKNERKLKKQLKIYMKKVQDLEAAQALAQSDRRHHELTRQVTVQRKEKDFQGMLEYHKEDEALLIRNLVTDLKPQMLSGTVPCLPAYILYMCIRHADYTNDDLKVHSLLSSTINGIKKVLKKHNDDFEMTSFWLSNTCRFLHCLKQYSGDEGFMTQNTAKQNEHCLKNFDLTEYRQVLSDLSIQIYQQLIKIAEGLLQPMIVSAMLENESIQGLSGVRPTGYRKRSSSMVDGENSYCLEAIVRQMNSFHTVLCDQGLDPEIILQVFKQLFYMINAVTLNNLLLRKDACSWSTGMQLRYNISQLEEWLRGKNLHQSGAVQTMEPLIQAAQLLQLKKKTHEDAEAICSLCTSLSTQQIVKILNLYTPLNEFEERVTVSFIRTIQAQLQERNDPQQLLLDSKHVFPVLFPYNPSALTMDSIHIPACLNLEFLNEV

compound: CN[C@@H]1C[C@H]2O[C@@](C)([C@@H]1OC)n1c3ccccc3c3c4c(c5c6ccccc6n2c5c31)C(=O)NC4 [staurosporine]; experiment: log2 fold change of tryptic peptide abundance, ligand vs vehicle (limited proteolysis) (log2 ratio); higher = more trypsin-susceptible (destabilized); conditions: ligand concentration: 20 uM; sample: mouse liver crude lysate; replicate design: treated separately

Target | log2 fold change
UniProt P23475 (peptide sequence: IMLFTNEDDPHGRDSAK, peptide start residue: 164) | 0.547
UniProt P26618 (peptide sequence: KKSMLDSEVK, peptide start residue: 770) | -0.0964
UniProt P23927 (peptide sequence: RPFFPFHSPSR, peptide start residue: 12) | -0.262
UniProt P20491 (peptide sequence: SQETYETLK, peptide start residue: 72) | -0.059
UniProt P27601 (peptide sequence: DVKDTILHDNLK, peptide start residue: 361) | -0.361
UniProt P27612 (peptide sequence: TVNIYFPK, peptide start residue: 530) | -0.281
UniProt P17156 (peptide sequence: MVSHLAEEFKR, peptide start residue: 240) | 0.14
UniProt P21271 (peptide sequence: QALTLLGVR, peptide start residue: 310) | -0.76

Reprinted from above (two entries):
Target | log2 fold change
UniProt P20491 (peptide sequence: SQETYETLK, peptide start residue: 72) | -0.059
UniProt P27601 (peptide sequence: DVKDTILHDNLK, peptide start residue: 361) | -0.361
